From article doi:10.1101/2022.09.17.508354
No constants are given. Whether binding was seen depends on the method and setting. Binding seen in cells or lysates may run through a third protein. Some binding calls cover weakened binding; strength is not graded here.

By UniProt entry, the sequences of proteins in these tests, tags left out.
UniProt Q6ZLZ9: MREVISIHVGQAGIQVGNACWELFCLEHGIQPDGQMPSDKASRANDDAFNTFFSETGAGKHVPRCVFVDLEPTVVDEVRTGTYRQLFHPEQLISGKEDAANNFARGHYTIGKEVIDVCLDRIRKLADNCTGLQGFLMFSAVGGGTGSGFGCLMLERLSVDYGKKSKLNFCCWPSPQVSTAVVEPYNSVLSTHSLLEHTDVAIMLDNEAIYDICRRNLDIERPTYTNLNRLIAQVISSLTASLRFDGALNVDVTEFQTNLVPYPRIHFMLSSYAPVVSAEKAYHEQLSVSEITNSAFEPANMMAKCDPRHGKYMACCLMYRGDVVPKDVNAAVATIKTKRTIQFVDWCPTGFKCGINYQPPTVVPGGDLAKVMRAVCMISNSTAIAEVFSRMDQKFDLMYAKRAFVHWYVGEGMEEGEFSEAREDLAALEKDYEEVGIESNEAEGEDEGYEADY

Biological target: native α-tubulin-I in P. falciparum 3D7 parasite lysate (Plasmodium falciparum 3D7 (endogenous in parasite lysate)) (UniProt Q6ZLZ9)
Assay: co-IP

B1: native PfPFD2 in P. falciparum 3D7 parasite lysate (protein, UniProt Q8ILS7 1-147)
chain: METKSNVESPNISEPKESKLTYEQIEKDRVQLVSKIEELYQDVVEHKLVLEALENVPSDRRCYRMVGEVLVERTVGEIKPALMDHKNKVEQVIAECQKQLDQKNNEISNFIKSAKAGNLPGGIINGNPSEDTNNLNDKEKKSDGIIF
With B1 the binding was “binds”.
